# Test results from US11072630B2, “Fluorinated and alkylated bile acids” (Metselex, Inc., priority 2015, dated 2021).
# At least one compound was matched to its structure with a doubt left.
# Legend:
# primary rat hepatocytes [1] = assay: DCA-induced loss of cell viability (CellTiter-Fluor Cell Viability Assay); assay type: cell-based; settings: pretreatment with 100 μM bile acid, 50 μM DCA
# primary rat hepatocytes [2] = settings: previously shown, Castro et al. 2007; cited from earlier work
# primary rat hepatocytes [3] = settings: previously shown, Solá et al., 2003; cited from earlier work
smiles,measurement,setting,value
"C[C@H](CCC(=O)O)[C@H]1CC[C@H]2[C@@H]3[C@@H](O)C[C@@H]4C[C@H](O)CC[C@]4(C)[C@H]3CC[C@]12C [UDCA, ursodeoxycholic acid, reference compound]",rescue of cell viability in cells exposed to DCA,primary rat hepatocytes [1],effective at rescuing cell viability
same,inhibition of DCA-induced cell death,primary rat hepatocytes [2],~60%
same,inhibition of TGF-β1-induced cell death,primary rat hepatocytes [3],~50%
